Here are results for three substances from US6972178.

Chains of the proteins cited; added tags and fusions are not shown. Lines headed by an entry give the natural chain unless they say otherwise; changes in a name come on top.
UniProt P04386: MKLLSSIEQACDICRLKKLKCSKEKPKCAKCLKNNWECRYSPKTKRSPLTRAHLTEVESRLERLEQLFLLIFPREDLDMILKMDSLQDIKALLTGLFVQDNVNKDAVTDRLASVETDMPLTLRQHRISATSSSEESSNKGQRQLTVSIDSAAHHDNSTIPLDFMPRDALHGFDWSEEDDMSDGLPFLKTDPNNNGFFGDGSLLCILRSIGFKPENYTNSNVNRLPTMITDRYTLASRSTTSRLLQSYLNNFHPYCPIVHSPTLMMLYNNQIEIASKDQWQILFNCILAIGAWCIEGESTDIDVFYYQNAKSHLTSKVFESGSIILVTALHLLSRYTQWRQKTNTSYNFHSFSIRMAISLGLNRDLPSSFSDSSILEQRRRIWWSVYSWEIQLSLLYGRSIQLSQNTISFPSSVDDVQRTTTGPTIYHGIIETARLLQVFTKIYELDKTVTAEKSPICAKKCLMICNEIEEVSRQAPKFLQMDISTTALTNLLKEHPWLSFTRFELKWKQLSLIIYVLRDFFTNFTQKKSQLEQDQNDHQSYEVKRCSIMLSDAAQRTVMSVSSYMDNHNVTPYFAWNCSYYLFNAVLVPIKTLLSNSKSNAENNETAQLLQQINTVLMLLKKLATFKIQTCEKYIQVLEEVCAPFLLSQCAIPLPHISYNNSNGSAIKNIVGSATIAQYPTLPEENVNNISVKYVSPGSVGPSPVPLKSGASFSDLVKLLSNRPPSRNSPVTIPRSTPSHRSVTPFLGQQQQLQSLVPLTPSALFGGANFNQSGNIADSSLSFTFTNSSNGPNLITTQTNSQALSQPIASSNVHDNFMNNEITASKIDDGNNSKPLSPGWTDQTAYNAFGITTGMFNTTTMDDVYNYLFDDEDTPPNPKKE
UniProt Q04752: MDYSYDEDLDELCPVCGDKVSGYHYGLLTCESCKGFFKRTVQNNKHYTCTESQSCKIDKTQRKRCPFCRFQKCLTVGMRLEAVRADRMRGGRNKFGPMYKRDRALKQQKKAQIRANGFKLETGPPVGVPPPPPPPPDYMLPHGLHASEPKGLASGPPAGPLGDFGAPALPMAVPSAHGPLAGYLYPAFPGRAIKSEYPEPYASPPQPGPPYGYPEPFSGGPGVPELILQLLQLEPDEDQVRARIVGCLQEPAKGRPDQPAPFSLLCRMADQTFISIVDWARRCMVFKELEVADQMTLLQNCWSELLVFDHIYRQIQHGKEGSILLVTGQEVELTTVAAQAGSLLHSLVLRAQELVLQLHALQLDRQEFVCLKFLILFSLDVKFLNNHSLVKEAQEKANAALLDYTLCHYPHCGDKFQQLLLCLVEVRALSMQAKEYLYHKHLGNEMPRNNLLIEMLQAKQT
UniProt Q12796: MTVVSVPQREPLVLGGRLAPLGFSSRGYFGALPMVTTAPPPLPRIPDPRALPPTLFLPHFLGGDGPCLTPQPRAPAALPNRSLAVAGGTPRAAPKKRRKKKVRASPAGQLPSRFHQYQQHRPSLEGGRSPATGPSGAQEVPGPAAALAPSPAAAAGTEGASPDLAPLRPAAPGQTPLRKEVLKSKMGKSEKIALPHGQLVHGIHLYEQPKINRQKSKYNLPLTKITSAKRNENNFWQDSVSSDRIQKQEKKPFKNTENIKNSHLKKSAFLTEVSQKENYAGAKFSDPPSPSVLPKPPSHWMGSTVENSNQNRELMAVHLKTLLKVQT

For experiment [1], the target named is Gal4DBD-SF1 fusion protein (bovine steroidogenic factor 1, pGBT9-SF1) (bovine) (UniProt P04386+Q04752). Description: yeast two-hybrid, β-galactosidase activity (FIG. 5B).
The target of experiment [2] is Gal4DBD-ERRα1 fusion protein (estrogen related receptor α-1, pGBT9-ERRα-1) (UniProt P04386). Description: yeast two-hybrid (HIS3 and LacZ reporters), no ligand.
Experiment [3] has as its target Wild type bovine SF1 (steroidogenic factor 1), from pSG5 vector (bovine) (UniProt Q04752). Description: GST pull-down of in vitro translated 35S-SF1, SDS-PAGE and autoradiography.

Results are given in words; binding and its absence hold for the method and conditions named. For part of these data: Binding seen in cells or lysates may run through a third protein. Some entries that bind do so weakly or less than the wild type.

In the case of “Gal4AD fusion of PNRC aa 270-317 (from UniProt Q12796 270-317)”, in experiment [1], the binding entry was “binds”.

For “Gal4AD-PNRC fusion protein (full-length proline-rich nuclear receptor co-regulatory protein) (from UniProt Q12796 1-327)”, the binding result in experiment [2] was “binds”.

Take “GST-PNRC270-327 (from UniProt Q12796 270-327)”: the binding entry in experiment [3] is on record as “binds”.
